From patent US20050065333A1
These are yes or no findings as the source states them, for the method shown. For part of these data: In cells and extracts the contact can be indirect. Some results given as binding are weak or reduced against the parent protein; the word gives no strength. Sequences can lack the tags named with a protein.

Sequences of proteins named here, by UniProt entry; tags and fusion partners are left off.
UniProt Q9HAU4: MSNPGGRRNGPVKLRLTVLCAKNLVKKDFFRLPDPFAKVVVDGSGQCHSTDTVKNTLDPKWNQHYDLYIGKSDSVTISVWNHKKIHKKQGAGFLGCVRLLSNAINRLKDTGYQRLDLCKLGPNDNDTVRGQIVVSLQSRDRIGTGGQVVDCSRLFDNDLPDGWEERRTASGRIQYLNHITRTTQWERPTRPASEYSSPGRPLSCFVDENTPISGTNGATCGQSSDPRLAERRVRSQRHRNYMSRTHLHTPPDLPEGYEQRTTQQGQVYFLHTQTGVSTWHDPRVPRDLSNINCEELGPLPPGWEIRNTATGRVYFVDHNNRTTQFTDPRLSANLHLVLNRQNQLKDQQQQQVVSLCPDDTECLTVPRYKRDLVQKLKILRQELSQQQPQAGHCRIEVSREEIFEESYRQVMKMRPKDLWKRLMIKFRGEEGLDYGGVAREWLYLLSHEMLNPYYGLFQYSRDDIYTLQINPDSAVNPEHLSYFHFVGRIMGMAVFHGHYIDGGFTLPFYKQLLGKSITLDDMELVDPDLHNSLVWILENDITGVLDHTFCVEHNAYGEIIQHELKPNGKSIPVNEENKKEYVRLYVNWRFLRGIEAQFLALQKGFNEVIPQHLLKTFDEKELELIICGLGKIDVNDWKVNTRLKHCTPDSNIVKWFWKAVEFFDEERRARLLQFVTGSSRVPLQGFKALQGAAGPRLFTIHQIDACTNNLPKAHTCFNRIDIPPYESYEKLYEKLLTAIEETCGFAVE

Tests used:
FLAG-BCA1 (human) [1] = molecular target: T1, FLAG-BCA1 (human); assay: co-immunoprecipitation from co-transfected cells with anti-Smurf2 antibody
T1 sequence: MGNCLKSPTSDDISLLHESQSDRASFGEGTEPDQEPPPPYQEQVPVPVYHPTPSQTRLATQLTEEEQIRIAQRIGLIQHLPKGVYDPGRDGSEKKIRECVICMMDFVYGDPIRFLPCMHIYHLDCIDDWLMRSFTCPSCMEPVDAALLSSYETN

FLAG-BCA1 (human) [2] = molecular target: T1, FLAG-BCA1 (human); assay: GST pull-down from HEK-293T cell extracts, western blot with anti-FLAG antibody
FLAG-Smurf2 = FLAG-Smurf2 (UniProt Q9HAU4); assay: co-transfection of GST-BCA1, FLAG-Smurf2 and HA-ubiquitin; precipitation of FLAG-tagged protein, anti-HA western blot

Molecule: GST-Smurf2 (from UniProt Q9HAU4 1-748) (enzyme)
- binding (FLAG-BCA1 (human) [1]): binds

Molecule: GST-AIP4 (from UniProt P08515 1-218; Q96J02 1-862) (enzyme)
- binding (FLAG-BCA1 (human) [2]): binds

B1: GST-BCA1 fusion protein (protein, not shown: a dimerising Fc or GST)
chain: T1 sequence
- binding (FLAG-Smurf2): binds
